# Measured values taken from the supplement of paper PMC8728848.
# This is one part of the list.
# How the values were obtained:
# Test in all cases: glycan array binding signal (z-score within array); higher = stronger binding
# Conditions in all cases: glycan notation: IUPAC condensed, linker removed
# [1] = target: Neu5Ac(a2-6)Gal(b1-4)GlcNAc(b1-6)GalNAc
# Summary of the method: (§1)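 The binding signal is a Z-score computed within each array. Data were drawn from 3228 arrays in the Consortium for Functional Glycomics database, restricted to those with a known protein sequence. Scores were averaged over arrays of the same protein sequence at different concentrations or buffers, and over linkers, and negative values can be taken as non-binding.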
# [2] = target: Neu5Ac(a2-6)Gal(b1-4)GlcNAc(b1-6)[Gal(b1-3)GlcNAc(b1-3)]Gal(b1-4)Glc
# Summary of the method: as §1
# [3] = target: Neu5Ac(a2-6)Gal(b1-4)GlcNAc(b1-6)[Gal(b1-3)]GalNAc
# Summary of the method: as §1
# [4] = target: Neu5Ac(a2-6)Gal(b1-4)GlcNAc6S
# Summary of the method: as §1
# Neu5Ac(a2-6)GalNAc = target: Neu5Ac(a2-6)GalNAc
# Summary of the method: as §1
# [5] = target: Neu5Ac(a2-6)GalNAc(b1-4)GlcNAc
# Summary of the method: as §1
# [6] = target: Neu5Ac(a2-6)GalNAc(b1-4)GlcNAc6S
# Summary of the method: as §1
# [7] = target: Neu5Ac(a2-6)GlcNAc(b1-4)GlcNAc
# Summary of the method: as §1
# [8] = target: Neu5Ac(a2-6)GlcNAc(b1-4)GlcNAc(b1-4)GlcNAc
# Summary of the method: as §1
# Neu5Ac(a2-8)Neu5Ac = target: Neu5Ac(a2-8)Neu5Ac
# Summary of the method: as §1
# [9] = target: Neu5Ac(a2-8)Neu5Ac(a2-3)Gal(b1-3)GalNAc(b1-4)[Neu5Ac(a2-3)]Gal(b1-4)Glc
# Summary of the method: as §1
# [10] = target: Neu5Ac(a2-8)Neu5Ac(a2-3)Gal(b1-3)GalNAc(b1-4)[Neu5Ac(a2-8)Neu5Ac(a2-3)]Gal(b1-4)Glc
# Summary of the method: as §1
# [11] = target: Neu5Ac(a2-8)Neu5Ac(a2-3)Gal(b1-4)Glc
# Summary of the method: as §1
# [12] = target: Neu5Ac(a2-8)Neu5Ac(a2-3)Gal(b1-4)GlcNAc
# Summary of the method: as §1
# [13] = target: Neu5Ac(a2-8)Neu5Ac(a2-3)[Gal(b1-3)GalNAc(b1-4)]Gal(b1-4)Glc
# Summary of the method: as §1
# [14] = target: Neu5Ac(a2-8)Neu5Ac(a2-3)[GalNAc(b1-4)]Gal(b1-4)Glc
# Summary of the method: as §1
# [15] = target: Neu5Ac(a2-8)Neu5Ac(a2-8)Neu5Ac
# Summary of the method: as §1
# [16] = target: Neu5Ac(a2-8)Neu5Ac(a2-8)Neu5Ac(a2-3)Gal(b1-4)Glc
# Summary of the method: as §1
# [17] = target: Neu5Ac(a2-8)Neu5Ac(a2-8)Neu5Ac(a2-3)[Gal(b1-3)GalNAc(b1-4)]Gal(b1-4)Glc
# Summary of the method: as §1
# [18] = target: Neu5Ac(a2-8)Neu5Ac(a2-8)Neu5Ac(a2-3)[GalNAc(b1-4)]Gal(b1-4)Glc
# Summary of the method: as §1
# [19] = target: Neu5Ac(a2-8)Neu5Ac(a2-8)Neu5Ac(a2-8)Neu5Ac(a2-3)[GalNAc(b1-4)]Gal(b1-4)Glc
# Summary of the method: as §1
# [20] = target: Neu5Ac(a2-8)Neu5Gc(a2-3)Gal(b1-4)GlcNAc
# Summary of the method: as §1
# [21] = target: Neu5Ac(b2-6)Gal(b1-4)GlcNAc
# Summary of the method: as §1
# Neu5Ac(b2-6)GalNAc = target: Neu5Ac(b2-6)GalNAc
# Summary of the method: as §1
# [22] = target: Neu5Ac9Ac(a2-3)Gal(b1-3)GlcNAc
# Summary of the method: as §1
# [23] = target: Neu5Ac9Ac(a2-3)Gal(b1-4)GlcNAc
# Summary of the method: as §1
# [24] = target: Neu5Ac9Ac(a2-6)Gal(b1-4)GlcNAc
# Summary of the method: as §1
# [25] = target: Neu5Gc(a2-3)Gal(b1-3)GlcNAc
# Summary of the method: as §1
# [26] = target: Neu5Gc(a2-3)Gal(b1-3)[Fuc(a1-4)]GlcNAc
# Summary of the method: as §1
# Neu5Gc(a2-3)Gal(b1-4)Glc = target: Neu5Gc(a2-3)Gal(b1-4)Glc
# Summary of the method: as §1
# [27] = target: Neu5Gc(a2-3)Gal(b1-4)GlcNAc
# Summary of the method: as §1
# [28] = target: Neu5Gc(a2-3)Gal(b1-4)GlcNAc(b1-3)Gal(b1-4)GlcNAc(b1-2)Man(a1-3)[Neu5Gc(a2-3)Gal(b1-4)GlcNAc(b1-3)Gal(b1-4)GlcNAc(b1-2)Man(a1-6)]Man(b1-4)GlcNAc(b1-4)GlcNAc
# Summary of the method: as §1
# [29] = target: Neu5Gc(a2-3)Gal(b1-4)[Fuc(a1-3)]GlcNAc
# Summary of the method: as §1
# [30] = target: Neu5Gc(a2-6)Gal(b1-4)GlcNAc
# Summary of the method: as §1
# Neu5Gc(a2-6)GalNAc = target: Neu5Gc(a2-6)GalNAc
# Summary of the method: as §1
# [31] = target: Neu5Gc(a2-8)Neu5Ac(a2-3)Gal(b1-4)GlcNAc
# Summary of the method: as §1
# [32] = target: Neu5Gc(a2-8)Neu5Gc(a2-3)Gal(b1-4)GlcNAc
# Summary of the method: as §1
# [33] = target: Neu5Gc(a2-8)Neu5Gc(a2-3)Gal(b1-4)GlcNAc(b1-3)Gal(b1-4)GlcNAc
# Summary of the method: as §1
binder,measurement,setting,value
"Clec18Av1 (Homo sapiens), A5D8T8 (protein) MLHPETSPGRGHLLAVLLALLGTAWAEVWPPQLQEQAPMAGALNRKESFLLLSLHNRLRSWVQPPAADMRRLDWSDSLAQLAQARAALCGTPTPSLASGLWRTLQVGWNMQLLPAGLVSFVEVVSLWFAEGQRYSHAAGECARNATCTHYTQLVWATSSQLGCGRHLCSAGQAAIEAFVCAYSPRGNWEVNGKTIVPYKKGAWCSLCTASVSGCFKAWDHAGGLCEVPRNPCRMSCQNHGRLNISTCHCHCPPGYTGRYCQVRCSLQCVHGRFREEECSCVCDIGYGGAQCATKVHFPFHTCDLRIDGDCFMVSSEADTYYRARMKCQRKGGVLAQIKSQKVQDILAFYLGRLETTNEVIDSDFETRNFWIGLTYKTAKDSFRWATGEHQAFTSFAFGQPDNHGFGNCVELQASAAFNWNDQRCKTRNRYICQFAQEHISRWGPGS",glycan array binding signal (z-score),[1],-0.777
same,glycan array binding signal (z-score),[2],0.581
same,glycan array binding signal (z-score),[3],0.511
same,glycan array binding signal (z-score),[4],-0.665
same,glycan array binding signal (z-score),Neu5Ac(a2-6)GalNAc,0.333
same,glycan array binding signal (z-score),[5],-0.849
same,glycan array binding signal (z-score),[6],-0.221
same,glycan array binding signal (z-score),[7],-0.857
same,glycan array binding signal (z-score),[8],-0.734
same,glycan array binding signal (z-score),Neu5Ac(a2-8)Neu5Ac,-0.782
same,glycan array binding signal (z-score),[9],-0.337
same,glycan array binding signal (z-score),[10],1.85
same,glycan array binding signal (z-score),[11],-0.829
same,glycan array binding signal (z-score),[12],-0.874
same,glycan array binding signal (z-score),[13],1.9
same,glycan array binding signal (z-score),[14],0.368
same,glycan array binding signal (z-score),[15],-0.842
same,glycan array binding signal (z-score),[16],-0.855
same,glycan array binding signal (z-score),[17],-0.855
same,glycan array binding signal (z-score),[18],2.28
same,glycan array binding signal (z-score),[19],1.57
same,glycan array binding signal (z-score),[20],-0.877
same,glycan array binding signal (z-score),[21],1.02
same,glycan array binding signal (z-score),Neu5Ac(b2-6)GalNAc,-0.283
same,glycan array binding signal (z-score),[22],-0.864
same,glycan array binding signal (z-score),[23],-0.829
same,glycan array binding signal (z-score),[24],-0.823
same,glycan array binding signal (z-score),[25],-0.775
same,glycan array binding signal (z-score),[26],-0.646
same,glycan array binding signal (z-score),Neu5Gc(a2-3)Gal(b1-4)Glc,-0.738
same,glycan array binding signal (z-score),[27],-0.845
same,glycan array binding signal (z-score),[28],0.566
same,glycan array binding signal (z-score),[29],-0.565
same,glycan array binding signal (z-score),[30],-0.844
same,glycan array binding signal (z-score),Neu5Gc(a2-6)GalNAc,0.959
same,glycan array binding signal (z-score),[31],-0.821
same,glycan array binding signal (z-score),[32],-0.855
same,glycan array binding signal (z-score),[33],-0.754
